Experimental data from US9750253B2, “Pesticidally active substituted pyridyl carboxamides” (Syngenta Participations AG, priority 2013, dated 2017).
Some of these results come from one statement about several compounds together.

Key:
[1] = test system: Rhopalosiphum padi (Bird Cherry Oat Aphid); assay: Activity against Rhopalosiphum padi, barley, seed treatment, mixed population, systemic/feeding activity, preventive; type: in vivo; conditions: 0.3 mg a.i./seed, infested two weeks after sowing, seven days incubation
Experimental: Example B5: Activity Against Rhopalosiphum padi (Bird Cherry Oat Aphid, Barley) (Seed Treatment) Mixed Population, Systemic/Feeding Activity, Preventive
The barley seeds were coated with the active ingredients as described in the formulation example F9 above.
A treated barley seed was sown in a 350 ml pot filled with soil. Two weeks after sowing the barley seedling was infested with an aphid population of mixed stages. After an incubation period of seven days the grade of efficacy was estimated and expressed in percentage.
Activity against Rhopalosiphum padi (Bird Cherry Oat Aphid, barley) (seed treatment) mixed population, systemic/feeding activity, preventive: […]

[2] = test system: Aphis craccivora (Cowpea Aphid); assay: Activity against Aphis craccivora, sugarbeet, seed treatment; type: in vivo; conditions: 0.3 mg a.i./seed, infested after 14 days, counted seven days after infestation

Cc1cccnc1-n1ncc(C(=O)N(C)c2cccnc2)c1C [Compound 1.001, 1-(3-methylpyridin-2-yl)-5-methyl-1H-pyrazole-4-carboxylic acid methyl-pyridin-3-yl-amide]
efficacy in the reduction of aphids compared to the untreated control plants [1]: over 80% | efficacy in the reduction of aphids compared to the untreated control plants [2]: over 80%

Cc1cc(C#N)cnc1-n1ncc(C(=O)N(C)c2cccnc2)c1C [Compound 1.004, 1-(5-cyano-3-methyl-2-pyridyl)-N,5-dimethyl-N-(3-pyridyl)pyrazole-4-carboxamide]
efficacy in the reduction of aphids compared to the untreated control plants [1]: over 80% | efficacy in the reduction of aphids compared to the untreated control plants [2]: over 80%
